According to article doi:10.1101/2021.01.05.425376:
These are yes or no findings as the source states them, for the method shown. In cells and extracts the contact can be indirect. A result given as binding can be weak or reduced; the word gives no strength. For some assays here: Sequences can lack the tags named with a protein. Blank lines part the entries; values can stand above or below the binder they belong to.

Assays:
[1] = target: GFP-tagged SUMO^Q95P (S. cerevisiae) [SUMO: Q12306]; assay: co-IP
[2] = target: Nur1Δ54^3HA (S. cerevisiae); assay: co-IP

binding [1]: binds
B1: Slx5 (protein, UniProt P32828 1-619)
chain: MHSDTNGRTKSNNSPSDNNPNETVILIDSDKEEDASIREANLPVRLYPDRRVGRRRDALNRFVRSDSRSRNSQRTHITASSERPDFQANNDDITIIREVGRFFGDDGPIDPSAHYVDLDQEPGSETLETPRTIQVDNTNGYLNDNGNNNESDDGLTIVEERTTRPRVTLNLPGGERLEVTATTTDIPIRRSFEFQEDLGASRRQLLRRSATRARNLFVDRSDENDEDWTDDTHNLPEAIQRARRESRMRMSRRIAERQRRVQQQRVSSDENISTSIRLQSIRERIQSYTPDIRSAFHRAESLHEFRSILQNVAPITLQECEEELMALFTEFRNQLLQNWAIDRVRNTQEEALRLHREALERQERTAGRVFHRGTLRESITNYLNFNGEDGFLSRLWSGPALSDADEERHTQNIIDMIQEREERERDVVMKNLMNKTRAQQEEFEARAASLPEGYSASFDTTPKMKLDITKNGKEETIIVTDDDLAKTLEDIPVCCLCGAELGVGIPDDFTGISQKDRGVSFEGLVSKYKFHCPYQTLARPSMLDRDLSKRTFIASCGHAFCGRCFARIDNAKKKSKMPKKKLAQLKGSAHPDNYGPKLCPADSCKKLIRSRGRLKEVYF

binding [2]: binds
B2: Heh1^GFP (protein, UniProt Q03707 1-834)
chain: MNSDLEYLEDGFDPNSMKVATLRRILVENNVDFPSNARKNALVGLFDEKVKPQIPQLRKMYLNVRPSDEGIVKMDRPSSSPSIASPRRSRRARREKSASPMAKQFKKNRILDDVSNDDDDDDDDDDDNDKKDDPLIVPSGTDTDEVDDEEDDVITSSSNKSDTNDFQQNSDTRKKRKDPDSDDWSESNSKENKIDNKHLNLLSSDSEIEQDYQKAKKRKTSDLNQEHGNGSAILGKLSVKTPIKNTNRKPVSMDNFNDSLTSSGTENDPFVPNIRHNPKELGTANGTGHSTPLSKLKVSASFADKLPQKEVPSTILVPEVEQQEPSQSERTPSLFSSEGSGSESEAPLLPEITTPGPHQPMGNTSNNVVEMIDTDSSNLVSDEDEVLVPTRIETPQLPTEKDVEKCEARVQELQEEVNEQLEHENGSEFDVKQGSGKVGNRHKFKRALKFLSKSLLALFLFCIFIVIPLLFGLWYREQRLLIGYCGHEVPSHRVSGNSFEFIQKLDNLLQDYRPKCIPCPPNGICYPYLKLKCKPDYKLAPSRLDFLEIIPAQGKCVKDDKKQQLVSEVVEKSLEFLRAKNAQISCGDGKDDIESGMTEDALYQIFNEARAPWIRDDEFEDLWIQVIKDLTEEPEILWRQLSPTDNNIGGNSNNIIKTNDVPRQKRHLPEKFISKTRNFRSTSKKYIGMKCRFEREIYQTYKKFQRPIWLMFLLIVISKVIEIKLKNYYRKKARIEELVTQTMEKLKFQKIKSMSDPKENAYLSIVQLRDIFLSDIVDLKYKNQLWSEVVKYLEHNNSNIKSNLTEIRGEIMKCWEWIGPMELNEPKDSAENKI
